This note sets out measurements from paper PMC8546149, “Antibiotic-chemoattractants enhance neutrophil clearance of Staphylococcus aureus” (Nature Communications, 2021).

Chains of the proteins cited; added tags and fusions are not shown.
UniProt P25090: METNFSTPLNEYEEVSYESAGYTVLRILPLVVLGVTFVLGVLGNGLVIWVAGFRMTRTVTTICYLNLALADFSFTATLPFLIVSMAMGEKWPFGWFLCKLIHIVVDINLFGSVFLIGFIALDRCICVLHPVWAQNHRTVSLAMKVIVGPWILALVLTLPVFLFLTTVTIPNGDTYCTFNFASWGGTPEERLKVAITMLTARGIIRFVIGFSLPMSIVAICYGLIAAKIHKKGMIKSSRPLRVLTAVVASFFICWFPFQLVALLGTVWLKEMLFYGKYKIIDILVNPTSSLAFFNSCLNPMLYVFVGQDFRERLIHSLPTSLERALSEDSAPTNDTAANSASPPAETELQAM

Results are given in words; binding and its absence hold for the method and conditions named. Some entries that bind do so weakly or less than the wild type.

The assay addresses formyl peptide receptor 2 (FPR2) (human (endogenous in neutrophils)) (UniProt P25090). In words: competition binding of a fluorescent ligand on cells (plate reader); RhB-PB10 (15 uM) preincubated with human neutrophils (5 x 10^6/mL) in Bis-Tris buffer pH 6 for 1 h, washed twice, then 5 min with 8 uM test peptide, washed; Rhodamine B fluorescence left on the cells read at ex 550 nm, em 585 nm; only the binder purified.

As to MIVIL (N-formyl on the N-terminal methionine) [fMIVIL], the binding result was “binds”.
